Data as given in PubChem BioAssay AID504791 (Drosophila RNAi Screening Center, 2011).
The deposit covers about 23,000 reagents; below is an unselected part of those with a known target gene and a result. In the full data, 199 (0.86%) were called active. 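Plate-scaled ratios behind the calls are not deposited; printed light signals are raw; many rows marked increased or decreased are still called inactive.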 Entries without a mark were called inactive. Not given: the direction of the score.

Purpose: 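Genes of the fly required for silencing by miRNA, siRNA or endo-siRNA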 (primary screen)
Cells: Drosophila S2-derived reporter cells
Knock-down reagent: long dsRNA against Drosophila genes, about 150-250 ng dsRNA per well (siRNA assay); about 80-120 ng (miRNA assay)
Duration: about 5 days (siRNA assay); about 4 days (miRNA assay)
Challenge: copper sulfate induction of reporters: 25 µM (siRNA assay); 200 mM stated (miRNA assay), 1-2 days before reading
Measurement: 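Dual luciferase assay: Renilla to firefly signal ratio in each well, scaled to the mean ratio of its plate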
Active means: 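a well was a first-pass pick when its plate-scaled ratio rose above 1.5 (siRNA assay) or 1.6 (miRNA assay), or dropped below 0.6; a gene counted only if two separate dsRNAs agreed on retest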

CG8229 [DRSC07114]
- miRNA reporter change: reporter ratio lowered past the hit cutoff
- stable assay Renilla, run 1 (luminescence): 7755
- stable assay firefly, run 1 (luminescence): 4.00e5

ebo [DRSC18787]
- stable assay Renilla, run 1 (luminescence): 7191
- stable assay firefly, run 1 (luminescence): 4.65e5

CG34040 [DRSC03902]
- stable assay Renilla, run 1 (luminescence): 4960
- stable assay firefly, run 1 (luminescence): 3.37e5

flr [DRSC09787]
- stable assay Renilla, run 1 (luminescence): 8272
- stable assay firefly, run 1 (luminescence): 4.29e5

CG6180 [DRSC02937]
- stable assay Renilla, run 1 (luminescence): 12737
- stable assay firefly, run 1 (luminescence): 4.70e5

NHP2 [DRSC11229]
- stable assay Renilla, run 1 (luminescence): 8118
- stable assay firefly, run 1 (luminescence): 4.71e5

CG14443 [DRSC17936]
- stable assay Renilla, run 1 (luminescence): 5934
- stable assay firefly, run 1 (luminescence): 2.85e5

mthl11 [DRSC12779]
- stable assay Renilla, run 1 (luminescence): 5371
- stable assay firefly, run 1 (luminescence): 4.05e5

Obp47a [DRSC06255]
- stable assay Renilla, run 1 (luminescence): 6594
- stable assay firefly, run 1 (luminescence): 4.99e5

beat-VI [DRSC14474]
- stable assay Renilla, run 1 (luminescence): 6464
- stable assay firefly, run 1 (luminescence): 3.92e5

beat-VI [DRSC14727]
- stable assay Renilla, run 1 (luminescence): 7035
- stable assay firefly, run 1 (luminescence): 3.96e5

gry [DRSC08028]
- stable assay Renilla, run 1 (luminescence): 3952
- stable assay firefly, run 1 (luminescence): 4.67e5

gry [DRSC08518]
- stable assay Renilla, run 1 (luminescence): 7399
- stable assay firefly, run 1 (luminescence): 5.44e5

NC2beta [DRSC01895]
- stable assay Renilla, run 1 (luminescence): 5931
- stable assay firefly, run 1 (luminescence): 1.87e6

CG42399 [DRSC00322]
- stable assay Renilla, run 1 (luminescence): 7979
- stable assay firefly, run 1 (luminescence): 5.41e5

CG42399 [DRSC00661]
- stable assay Renilla, run 1 (luminescence): 7484
- stable assay firefly, run 1 (luminescence): 4.30e5

Sytalpha [DRSC02869]
- stable assay Renilla, run 1 (luminescence): 7982
- stable assay firefly, run 1 (luminescence): 4.44e5

CG6420 [DRSC16035]
- stable assay Renilla, run 1 (luminescence): 7438
- stable assay firefly, run 1 (luminescence): 5.44e5

Entries listed so far whose target name starts with N or n (2):
NHP2 [DRSC11229]
- stable assay Renilla, run 1 (luminescence): 8118
- stable assay firefly, run 1 (luminescence): 4.71e5

NC2beta [DRSC01895]
- stable assay Renilla, run 1 (luminescence): 5931
- stable assay firefly, run 1 (luminescence): 1.87e6

The list goes on.
c-cup [DRSC00458]
- stable assay Renilla, run 1 (luminescence): 9028
- stable assay firefly, run 1 (luminescence): 6.13e5

CrebB [DRSC20232]
- stable assay Renilla, run 1 (luminescence): 2600
- stable assay firefly, run 1 (luminescence): 2.09e5

RPA3 [DRSC19658]
- stable assay Renilla, run 1 (luminescence): 6311
- stable assay firefly, run 1 (luminescence): 4.42e5

PH4alphaSG1 [DRSC15080]
- stable assay Renilla, run 1 (luminescence): 6807
- stable assay firefly, run 1 (luminescence): 4.61e5

Or43a [DRSC07485]
- stable assay Renilla, run 1 (luminescence): 5860
- stable assay firefly, run 1 (luminescence): 3.94e5

Chi [DRSC04602]
- stable assay Renilla, run 1 (luminescence): 7354
- stable assay firefly, run 1 (luminescence): 1.57e6

CG33689 [DRSC09424]
- stable assay Renilla, run 1 (luminescence): 5874
- stable assay firefly, run 1 (luminescence): 4.64e5

aln [DRSC08240]
- stable assay Renilla, run 1 (luminescence): 6630
- stable assay firefly, run 1 (luminescence): 5.11e5

Pen [DRSC03396]
- stable assay Renilla, run 1 (luminescence): 8695
- stable assay firefly, run 1 (luminescence): 1.34e6

mdlc [DRSC15690]
- stable assay Renilla, run 1 (luminescence): 10317
- stable assay firefly, run 1 (luminescence): 4.29e5
